For the assay, the target named is Mcm3 (X. laevis (endogenous in egg extract)) (UniProt P49739). The assay is described as follows: affinity purification with mass spectrometry; Mcm3 IP from chromatin in S-phase (replisomes retained by CULi and p97i) and in mitosis (CyclinA1ΔN added); re-analysis of the authors' previously published mass spectrometry data (refs 4 and 10), peptides normalised to total Mcm2-7.

Chains of the proteins cited; added tags and fusions are not shown.
UniProt P49739: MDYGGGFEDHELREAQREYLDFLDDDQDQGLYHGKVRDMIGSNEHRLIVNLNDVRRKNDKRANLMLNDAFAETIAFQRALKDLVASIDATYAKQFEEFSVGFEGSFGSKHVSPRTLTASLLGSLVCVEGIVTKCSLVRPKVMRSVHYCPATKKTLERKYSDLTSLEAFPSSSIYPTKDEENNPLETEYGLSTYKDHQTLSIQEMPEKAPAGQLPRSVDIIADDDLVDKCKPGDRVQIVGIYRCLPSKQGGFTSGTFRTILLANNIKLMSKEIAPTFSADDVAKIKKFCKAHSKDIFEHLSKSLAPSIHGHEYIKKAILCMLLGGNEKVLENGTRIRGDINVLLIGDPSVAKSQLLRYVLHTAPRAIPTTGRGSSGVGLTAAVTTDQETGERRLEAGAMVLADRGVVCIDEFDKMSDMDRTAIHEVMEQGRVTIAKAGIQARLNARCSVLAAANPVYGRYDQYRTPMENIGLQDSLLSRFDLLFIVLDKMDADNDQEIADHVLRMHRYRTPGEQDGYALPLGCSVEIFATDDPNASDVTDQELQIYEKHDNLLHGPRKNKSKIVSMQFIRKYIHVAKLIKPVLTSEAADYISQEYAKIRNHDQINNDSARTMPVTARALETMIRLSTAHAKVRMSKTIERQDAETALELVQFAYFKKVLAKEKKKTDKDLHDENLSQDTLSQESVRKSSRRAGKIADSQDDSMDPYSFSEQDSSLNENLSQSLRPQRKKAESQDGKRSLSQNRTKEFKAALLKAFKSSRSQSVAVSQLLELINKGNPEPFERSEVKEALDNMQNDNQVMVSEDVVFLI

Results on 3 molecules are retold here after PMC12242765.

No constants are given. Whether binding was seen depends on the method and setting. Binding seen in cells or lysates may run through a third protein. A yes stands for co-enrichment or nearness to the bait. Other partners may have been found.

B1: Ctf18 (protein, UniProt Q6NU40 1-1000)
chain: MEEYDLYGVEDDFESQFASELEVLAELEDDVSSRPGPQRSQLRTKLSFEEAISAGDPIRSNANSKPTGDSNGEALACIDTSKSKKRDASCIDFEEDEFSDSIYEPPITPKHKRARIEAVKKLDFGRDEYAGNSTALSDDITPPPSPNHSPKKNERDSKFSSCEAFEVSDMAPLQVTPTESEQKRVLKRPPVLEDYINVTSTDGSRVYMALKEDNDGAQQKQGNLKWNSGQQLHLLGVPFSYLKEQVNDEHRRKVLEESQRLTEMLNSQINEEFGENDSEILENDDNAGEEDDEDEPSSHSLWVDRFTPRHYTELLSDDYTNRCLLKWLKLWDTVVFGKERVVRKPKAIVDPRANHFKNQKEQQSKFKTKAQITEEILEAELDHHNRPKNKVSLLCGPPGLGKTTLAHVIARHAGYNVVEMNASDDRSPEAFRTRIEAATQMKSVLGVDERPNCLIIDEIDGAPTVSINMLLSLVNRKDAKEAEGGTEATTGKKKKKEGGLLLRPIICICNDQYVPSLRQLRQQAFMLNFPQTMPSRLVQRLYEIAVKQGMKADTGALMALCEKTENDIRSCINTLQFLHGRGKKELNMRSVQTMRIGLKDQNKGLFSVWQEIFQLPKIQRKRIGQEVATNDLHLLLGSENDSLGMLAKPPLNAVAQRFHHILHLSTSTGEYEKLTMGLYDNFLNMKVKESNFSTVCLALDWLEFTDIVNSTIMHGQNFQLMRYLPFLPVAFHLLFAASNVPRIAYPSSHYEAQSKLNQMQNLLNAMVSEISPAIRTRVGPQSLVLDALCLLLDVLSPKLRPVNTQLFSTKEKQQLAELINTMLAYNLTYHQERTMEGQYVYKLDPNVEDVCRFPDLPVRKPLTYQTKQLIAREIELERMRRTEAFQQARNAGRDNTTAAAAVKTADPKGAKSAAKPAALNHEQRLENIMKKATFEEKPEKDFFGRQIVKKVAAPVTASANQEESVERRIGKAVGNSDVWFRFNEGVSNAVRRNIYIKDLL
In the case of B1, the binding result is recorded as “binds”.

B2: WRN helicase (enzyme, UniProt O93530 1-1436)
chain: MTSLQRKLPEWMSVKQQEDRIDDAKKSFCKKNILEDNLPFMKFNGSIVYSYESNDCSLLSEDIRSSLLEEDVLGFDIEWPPVYTKGKTGKVALIQVCVSEKKCYLFHISPMAGFPKGLKRLLEDESVRKVGVGIEGDQWKLMSDYELKLKGFIELSEMANQKLRCKEKWTFNGLIKHLFKEQLYKRKSYRCSNWDIFLLTEDQKLYAATDAYAGLLIYKKLEGMDAHESDSFRVGREGVADCKGVKRQLTDLSKGLMDLVNQVPNSFGCYTEAVRAVDILEDLSEKLEELRNIMKEASKAEGNGLHFQNSEDCSKKDKSILHVACKESLAEHKMDCKNADSQNNKDIDSCQNENRDEDFFMTLGISEEELYMMEREDDKKQTNPDYKLNKDSCDTNEEKDMSYVIESDEDFDSEIIKSLEDLDNSTEEALGTGVPQAGLIPAKSVDTVADEEEDEGIEEEDDDDDWDPSMPEPSAQHISCLKTYFGHSSFKPVQWKVVHSVLRERRDNLVVMATGYGKSLCYQFAPVYTSGIGIVICPLISLMEDQVLQLEMSNISSCFLGSAQSKNVLQDVKDGKMRVIYMTPEFCSRGISLLQDLDNRYGITLIAIDEAHCISEWGHDFRSAYRSLGSLKRMLPNVPIVALTATASPSIREDITKSLNLHNPQVTCTSFDRPNLYLDVARKTTNISIDLRQFLIKKQQGSGWEFEGATIVYCPTRKTSEQVTAELIKLGIACGTYHAGMGIKQRREVHHRFMRDEIHCVVATVAFGMGINKPDIRKVIHYGAPKEMESYYQEIGRAGRDGLPSCCHALWAQADMNFNRHMLGEIPNKGFREYKLKMLTKMEKYLNSSTCRRKIILSHFEDKQLRKASSGIMGTEKCCDNCKTRLICNISINDTEDNLQDFGPQAYKFISAVDVLGQKFGTGVPVLFLRGSTSQRVPDRFRNHSLFSSGKDQTEAFWKVLARQLITEGYLQESSGQTKFSTICGLTSKGSNWLIKANNEQCPSLLLPSNNELCLQRTRVSNFSSAQAHSSMVPHASSNTRSSMPKAGPEKMELKDKFSYQEAERLSKAAGVSKSSFKLQTPCKLSRPPEPEVSPRERELQTTLYGRLVVARQKIASERDILPAVLATNKVLVDMAKLRPTTSENMKKLDGVSEAKSAMLAPLLEVVKEFCIANSLKVDVFSGSVSQSESTFFTPREQERISLPESQRMSYSLFQEQNLSLKKIADVRCLSMAVVGMHLWQALKAGYSFDVQRAGLTPEMKKLITYAIKKPPINSDLSSFKAIREYVPANIDGYPIRMVISLLEKEGSSGAQGQPEFPTQKTLIQTEENPKNVSVQNTKHKVTMGKSMWIEKKPTQPATAELEVTKGKALAPIMLASWNEASLDADTEELFSESQSSTTRPRRRLPEWFGSTKGNAATRCIQESKNLGEEKGSFFD
As to B2, the binding entry is on record as “binds”.

B3: TRAIP (endogenous, Xenopus egg extract, chromatin-bound) (enzyme, UniProt Q6NRV0 1-464)
chain: MPIRAYCTICSDFFDNARDVAAITCGHTFHQECLLQWFHSAPHRTCPQCRIQVSSRQIINKLFFDIGGEEETVLDAESLKNEVDRIKASLLVKEKEKRECQGLVDSLREMLDVRNVTIQSQQKELGDMEMLCSTLKKQIKFLDKQQSETKAAKDEARKLRNKLKTMESIEVLLQSQRSEVEEMIRDMGSGQAAVEQLAIYCVSLKKEYENLKEVRKSSAEMTEKLRKELFSSNHKAQKAELELTKVREELSASQKELHSADKEIMSLKKKVEFLQKTLTTPTASNEAISRLIFESPAPIGLERPKLRPPMMGNDINLDVTFDIDTPEHNTQKSVVAPFKKMKFDNKEHPLSSPTKNPLQESKGLMSWAGGRTGADEDDDLTLPSFIKNSLLHKKPVGSLLGLRQNTGAVRTGFDGLGGRTKFIQPSNLTEIRPLHQKMKRKKVSRPTACTSSLANQPRLEDFLK
Consider B3, for which the binding entry is recorded as “binds”.
